Some test systems named below: OR1N2 clone 1505; OR1S2 I46T clone 1137; OR2A1 clone 1078; OR2A12 clone 1085; OR2A14 clone 1083; OR2A2 clone 1476; OR2A25 clone 1387; OR2A4 clone 1386; OR2A5 clone 1437; OR2A7 clone 1077; OR2AE1 I77T clone 1079; OR2AG1 clone 1112; OR1S1 clone 1455; OR2A14 Indel clone 1540; OR2A2 F280L clone 1541; OR2A42 clone 1565; OR2A7 clone 1543.
Holding throughout (test): odorant receptor activation (CRE luciferase / Renilla) (fold of no-odor wells); higher = more activation
Common to all, as to settings: 100 µM

For assay [1], the system named is OR1N2 W23R/V230G/T287M clone 1105.
Assay [2] deals with OR1N2 W37R/V244G/T301M clone 1350.
In assay [3] the test system is OR1Q1 Q24R/I163M clone 1103.

Several values for one entry are separate records, joined by “and”; a condition that tells them apart may be missing. Identical values can stand only once. The list shows a part of the results. Single wells; the ratio to wells without odorant was worked out here, and repeats agree poorly.

Regarding `COC(=O)c1ccccc1` [methyl benzoate], the odorant receptor activation in assay [1] was 3.37; in [2], 1.14 and 0.783; with OR1N2 clone 1505, 0.667 and 0.948; in [3], 1.02; in the assay with OR1S2 I46T clone 1137 it was 1.06; in the assay with OR2A1 clone 1078, 1.98. The odorant receptor activation in the assay with OR2A12 clone 1085 is 2.06; in the assay on OR2A14 clone 1083 it was 0.705; in the assay on OR2A2 clone 1476 it was 0.75 and 1.12; in the assay with OR2A25 clone 1387, 0.822; in the assay on OR2A4 clone 1386, 0.707; in the assay on OR2A5 clone 1437 it was 0.827. Further, the odorant receptor activation was determined as 0.982 in the assay on OR2A7 clone 1077, 2.92 in the assay on OR2AE1 I77T clone 1079 and 1.26 in the assay with OR2AG1 clone 1112.

With `O=C1CCCCCCCCCCCC(=O)OCCO1` [ethylene brassylate], the odorant receptor activation amounted to 1.85 in assay [1]; 1.89 in assay [2]; 1.12 in the assay with OR1N2 clone 1505; 1.58 in [3]; 1.82 with OR1S1 clone 1455; 2.34 with OR1S2 I46T clone 1137. Moreover, the odorant receptor activation stood at 1.03 with OR2A1 clone 1078; 1.57 in the assay with OR2A12 clone 1085; 1.61 in the assay on OR2A14 Indel clone 1540; 1.44 in the assay on OR2A14 clone 1083; 1.3 with OR2A2 F280L clone 1541; 1.62 with OR2A2 clone 1476. In addition, the odorant receptor activation in the assay with OR2A25 clone 1387 came to 1.79; with OR2A4 clone 1386, 2.33; with OR2A42 clone 1565, 1.19; in the assay with OR2A5 clone 1437, 2.34; in the assay on OR2A7 clone 1077, 1.59; in the assay with OR2A7 clone 1543, 1.22. The odorant receptor activation in the assay with OR2AE1 I77T clone 1079 came out at 1.93; in the assay with OR2AG1 clone 1112, 1.47.

Turning to `CC(C)(C)c1ccc(CCC=O)cc1` [bourgeonal], the odorant receptor activation is 0.926 in assay [1]; 0.896 in assay [2]; 0.927 with OR1N2 clone 1505; 0.888 in assay [3]; 0.759 in the assay with OR1S2 I46T clone 1137; 0.835 in the assay on OR2A1 clone 1078. The odorant receptor activation in the assay on OR2A12 clone 1085 stood at 1.05; in the assay with OR2A14 Indel clone 1540, 0.972; in the assay on OR2A14 clone 1083 it was 1.18; with OR2A2 F280L clone 1541, 1; in the assay on OR2A2 clone 1476, 1.02; in the assay on OR2A25 clone 1387, 0.181. Also, the odorant receptor activation with OR2A4 clone 1386 was determined as 0.167; in the assay with OR2A5 clone 1437, 0.232; in the assay on OR2A7 clone 1077, 0.655; with OR2A7 clone 1543 it was 0.851; with OR2AE1 I77T clone 1079, 0.724; in the assay on OR2AG1 clone 1112, 0.846.

As to `CCCCCCCCCCC=O` [undecanal], the odorant receptor activation in assay [1] stood at 1.17; in assay [2], 0.647; in the assay with OR1N2 clone 1505, 1.18; in [3], 1.33; in the assay on OR1S1 clone 1455, 1.24; in the assay with OR1S2 I46T clone 1137, 1.2. In addition, the odorant receptor activation in the assay on OR2A1 clone 1078 stood at 1.02; with OR2A12 clone 1085 it was 1.03; in the assay with OR2A14 Indel clone 1540, 0.824; with OR2A14 clone 1083, 1.15; in the assay with OR2A2 F280L clone 1541, 0.792; in the assay on OR2A2 clone 1476, 0.911. Besides, the odorant receptor activation in the assay with OR2A25 clone 1387 was determined as 1.24; in the assay on OR2A4 clone 1386, 1.13; in the assay with OR2A42 clone 1565 it was 0.894; with OR2A5 clone 1437 it was 1.07; with OR2A7 clone 1077, 0.858; with OR2A7 clone 1543, 0.767. Besides, the odorant receptor activation in the assay on OR2AE1 I77T clone 1079 was 0.924; in the assay with OR2AG1 clone 1112 it was 0.807.

With `CCCCCC(C)=O` [2-heptanone], the odorant receptor activation in assay [1] was 0.752; in assay [2], 0.893 and 0.603; in the assay with OR1N2 clone 1505, 0.97 and 0.686; in assay [3], 0.503; in the assay with OR1S2 I46T clone 1137 it was 1.2; with OR2A1 clone 1078, 0.568. Also, the odorant receptor activation with OR2A12 clone 1085 is 1.07; with OR2A14 clone 1083 it was 0.543; with OR2A2 clone 1476 it was 1.16 and 0.796; in the assay with OR2A25 clone 1387, 0.91; in the assay on OR2A4 clone 1386, 0.785; in the assay on OR2A5 clone 1437 it was 0.985. The odorant receptor activation with OR2A7 clone 1077 amounted to 0.393; in the assay on OR2AE1 I77T clone 1079 it was 0.568; in the assay with OR2AG1 clone 1112, 0.672.

Turning to `CC12C=CCC1C1CCC3=CC(=O)CCC3(C)C1CC2` (stereo unspecified) [androstadienone], the odorant receptor activation in assay [1] was 1.46; in [2], 1.17 and 0.901; in the assay on OR1N2 clone 1505, 0.851 and 1.14; in [3] it was 1.56; with OR1S2 I46T clone 1137, 1.12; in the assay with OR2A1 clone 1078, 4.65. In addition, the odorant receptor activation is 4.82 in the assay with OR2A12 clone 1085; 0.771 and 1.79 with OR2A14 Indel clone 1540; 4.35 with OR2A14 clone 1083; 1.1 and 1.4 in the assay with OR2A2 F280L clone 1541; 1.14 and 1.24 with OR2A2 clone 1476; 0.818 in the assay with OR2A25 clone 1387. The odorant receptor activation was 1.01 with OR2A4 clone 1386; 1.13 in the assay on OR2A5 clone 1437; 2.08 in the assay on OR2A7 clone 1077; 1.27 and 1.16 in the assay with OR2A7 clone 1543; 2 in the assay on OR2AE1 I77T clone 1079; 6.08 with OR2AG1 clone 1112.

Regarding `CCCCCCCCC=O` [nonyl aldehyde], the odorant receptor activation in [1] is 1.22; in assay [2], 0.983; in the assay on OR1N2 clone 1505, 1.24; in [3], 0.99; with OR1S1 clone 1455, 1.41; in the assay on OR1S2 I46T clone 1137 it was 1.39. In addition, the odorant receptor activation in the assay on OR2A1 clone 1078 came to 1.18; in the assay on OR2A12 clone 1085 it was 1.09; in the assay on OR2A14 Indel clone 1540 it was 1.01; in the assay on OR2A14 clone 1083, 1.03; in the assay with OR2A2 F280L clone 1541 it was 0.943; in the assay with OR2A2 clone 1476 it was 0.989. Also, the odorant receptor activation in the assay with OR2A25 clone 1387 was found to be 1.05; in the assay on OR2A4 clone 1386 it was 0.978; in the assay with OR2A42 clone 1565 it was 1.1; with OR2A5 clone 1437, 0.999; in the assay with OR2A7 clone 1077, 0.858; in the assay on OR2A7 clone 1543, 0.866. Besides, the odorant receptor activation was 0.956 in the assay with OR2AE1 I77T clone 1079 and 0.921 in the assay on OR2AG1 clone 1112.

The record behind these values is the odorant receptor screen of Mainland et al. (2015).
